The text below walks through data of patent US20180000768A1, “INTESTINAL FXR AGONISM ENHANCES GLP-1 SIGNALING TO RESTORE PANCREATIC BETA CELL FUNCTIONS” (Salk Institute for Biological Studies, priority 2015, published 2018).

This data set concerns Leptin-deficient ob/ob mice. Description: metabolic phenotype and glucose homeostasis of treated ob/ob mice. The class given is in vivo, mouse. How it is done: Leptin-deficient ob/ob mice were purchased from Jackson laboratory (stock no. 000632). Each mouse consumed 100 mg per kg of body weight Fex (in corn oil) per day by oral gavage for 5 weeks. For in vivo analog study, each mouse consumed 50 mg per kg of body weight Fex-D (in corn oil) per day by oral gavage for 14 days. For GLP-1 receptor antagonist study, each mouse was daily treated with 100 μg per kg of body weight Exendin 9-39 amide (Abcam) via intraperitoneal injection for 2 weeks. For INT-777 study, each mouse was daily gavaged with 60 mg per kg of body weight INT-777 (in corn oil) for 5 weeks. […] Core body temperature was measured with a clinical rectal thermometer (Thermalert model TH-5; Physitemp). […] Tail blood was drawn at indicated time intervals, and blood glucose level was measured with a One Touch Ultra glucometer (LifeScan). Body composition was measured with Echo MRI-100 body composition analyzer (Echo Medical Systems). […]
Real-time metabolic analyses were conducted in a Comprehensive Lab Animal Monitoring System (Columbus Instruments). CO2 production, O2 consumption, RQ (relative rates of carbohydrate versus fat oxidation) and ambulatory counts were determined for 4 consecutive days and nights, with at least 24-h for adaptation before data recording. […]

As for `COC(=O)/C=C/c1cccc(N(Cc2ccc(-c3ccc(N(C)C)cc3)cc2)C(=O)C2CCCCC2)c1` [Fexaramine], the body weight gain entry (Fex 100 mg/kg daily oral gavage, 5 weeks) is recorded as “did not exhibit any changes”. For the same compound, under “Fex 100 mg/kg/day for 2 weeks”, the “body weight compared to vehicle treatment” value is on record as “Neither Fex nor Fex-D treatment led to any changes”.
